# Results deposited as PubChem BioAssay AID1259254 (NCATS, 2017).
# Purpose: 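Genome-wide screen for genes that prevent DNA re-replication in cancer cells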 (primary screen)
# Cells: human HCT116 colorectal cancer cells
# Reagent: single siRNA against human genes
# Time to read-out: 3 days
# Measured: 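Imaged Hoechst DNA stain sorts each cell into a cycle phase by DNA amount; per plate, G2 fraction set to 0% for non-targeting and 100% for GMNN siRNA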
# Reading the numbers: G2 robust z-score and G2 cells, % of GMNN control: higher = more G2 cells, more excess DNA replication; raw share of cells in G2: higher = larger share of cells with G2 DNA content
# Hit rule: 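Active siRNAs have a G2 robust z of 5 or more median absolute deviations over the median, which in these data means about 38% or higher of GMNN control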
# The deposit covers about 59,000 reagents; shown is a random part of them. About 1,550 of them (2.6%) were called active. 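G2 share is only a proxy for re-replication; each gene was hit by three separate siRNAs, and active genes were retested.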 The raw values are shown without normalisation. A number with no mark means an inactive call. The numbers tell different reagents against one gene apart. No sequences are given here. Not stated in the record: the amount of reagent.
Target gene,reagent no.,G2 robust z-score,"G2 cells, % of GMNN control",raw share of cells in G2 (%)
KIAA1191,1,0.264,4.82,4.56
KIAA1191,2,0.738,8.16,7.56
KIAA1191,3,-0.197,1.58,5.22
HEATR1,1,5.7 (active),43.1,22.3
HEATR1,2,2.06,17.5,14.1
HEATR1,3,0.657,7.59,7.16
SMIM45,1,-0.268,1.08,4.63
SMIM45,2,0.17,4.17,5.42
SMIM45,3,0.457,6.18,5.96
LOC642335 (retired record),1,0.141,3.96,5.15
LOC642335 (retired record),2,0.0857,3.57,4.77
LOC642335 (retired record),3,-0.331,0.637,3.34
TMA7,1,-0.517,-0.673,2.97
TMA7,2,0.304,5.11,5.43
TMA7,3,0.651,7.55,7.45
SLC39A1,1,-0.231,1.34,4.43
SLC39A1,2,0.312,5.16,8.5
SLC39A1,3,-1.12,-4.94,2.55
GAPDHS,1,1.03,10.2,7.34
GAPDHS,2,-1.5,-7.62,2.71
GAPDHS,3,1.14,11,7.83
PSMC3,1,2.39,19.8,11.8
PSMC3,2,1.05,10.4,7.59
PSMC3,3,0.136,3.93,6.18
CORO1A,1,2.14,18,13.6
CORO1A,2,-0.611,-1.33,3.71
CORO1A,3,0.868,9.07,6.97
NLRC5,1,1.08,10.6,7.63
NLRC5,2,0.073,3.48,4.49
NLRC5,3,-0.632,-1.48,1.96
